Taken from: PubChem BioAssay AID1224830 (NIAID, 2016)
Aim: 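Host factors that control LPS-induced TNF expression in human macrophages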 (primary screen). Cell system: human THP-1 monocytic leukaemia cells, TNF dual-luciferase reporter clone, PMA-differentiated to macrophage-like cells. Reagents: siRNA pool against human genes, 50 nM. Time to read-out: LPS for 4 h, given about 3 days after siRNA transfection. Conditions: bacterial LPS (TLR4 ligand), 10 ng/ml. Measured: 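TNF firefly reporter luminescence divided by renilla, normalised to the plate median, then turned into a robust z-score for each replicate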. Direction: TNF reporter robust z-score: higher = stronger TNF reporter response to LPS. Active means: 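Each well counts as active if its z-score is over 2.8 or under -1.5; controls are left without a call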.
In all, the deposit lists about 18,000 reagents; shown is a part drawn at random. Over the whole deposit, about 2,900 (16%) were called active. 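Calls are made per well; low scores hint the gene aids the LPS response, high scores that it dampens it.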 The numbers tell different reagents against one gene apart. Repeated entries: four replicate wells of each siRNA pool.

no.	gene	reagent	TNF reporter robust z-score	call
1	AVPR2	1	0.59	inactive
2	AVPR2	1	1.44	inactive
3	AVPR2	1	1.82	inactive
4	AVPR2	1	0.73	inactive
5	GNG11	1	0.19	inactive
6	GNG11	1	-0.13	inactive
7	GNG11	1	1.74	inactive
8	GNG11	1	-0.03	inactive
9	ILK	1	3.41	active
10	ILK	1	1.58	inactive
11	ILK	1	0.51	inactive
12	ILK	1	0.89	inactive
13	LBR	1	-0.11	inactive
14	LBR	1	-0.02	inactive
15	LBR	1	-0.54	inactive
16	LBR	1	-0.56	inactive
17	CACNA2D2	1	-0.44	inactive
18	CACNA2D2	1	-0.66	inactive
19	CACNA2D2	1	-1	inactive
20	CACNA2D2	1	0.14	inactive
21	BNIP5	1	-0.22	inactive
22	BNIP5	1	1.89	inactive
23	BNIP5	1	0.34	inactive
24	BNIP5	1	0.4	inactive
25	SFTPA1	1	-0.23	inactive
26	SFTPA1	1	0.7	inactive
27	SFTPA1	1	0.37	inactive
28	SFTPA1	2	0.37	inactive
29	SFTPA1	2	-0.32	inactive
30	SFTPA1	2	-0.31	inactive
31	SFTPA1	2	-0.33	inactive
32	SGCA	1	-1.1	inactive
33	SGCA	1	-0.33	inactive
34	SGCA	1	-0.44	inactive
35	SGCA	1	-0.05	inactive
36	FAM43A	1	-1.2	inactive
37	FAM43A	1	-1.18	inactive
38	FAM43A	1	-1	inactive
39	FAM43A	1	-0.86	inactive
40	SPSB2	1	1.35	inactive
41	SPSB2	1	2.19	inactive
42	SPSB2	1	0.7	inactive
43	SPSB2	1	1.6	inactive
44	SACK1D	1	-0.64	inactive
45	SACK1D	1	0.07	inactive
46	SACK1D	1	0.56	inactive
47	SACK1D	1	0.09	inactive
48	CDH16	1	-1.04	inactive
49	CDH16	1	-0.96	inactive
50	CDH16	1	-0.83	inactive
51	CDH16	1	-0.67	inactive
52	TENT4B	1	5.31	active
53	TENT4B	1	3.35	active
54	TENT4B	1	2.63	inactive
55	TENT4B	1	3.43	active
56	MGST1	1	-1.06	inactive
57	MGST1	1	-1.08	inactive
58	MGST1	1	-0.92	inactive
59	MGST1	1	-0.79	inactive
60	NOPCHAP1	1	0.07	inactive
61	NOPCHAP1	1	0.01	inactive
62	NOPCHAP1	1	0.1	inactive
63	NOPCHAP1	1	0.59	inactive
64	HELB	1	0.09	inactive
65	HELB	1	0.08	inactive
66	HELB	1	-0.91	inactive
67	HELB	1	1	inactive
68	EPPK1	1	-0.53	inactive
69	EPPK1	1	0.28	inactive
70	EPPK1	1	0.32	inactive
71	EPPK1	1	0.33	inactive
72	ARL3	1	-0.79	inactive
73	ARL3	1	0.26	inactive
74	ARL3	1	0.28	inactive
75	ARL3	1	-0.31	inactive
76	GALNT7	1	-0.67	inactive
77	GALNT7	1	0.37	inactive
78	GALNT7	1	-1.1	inactive
79	GALNT7	1	-0.75	inactive
80	SMOX	1	1.56	inactive
81	SMOX	1	1.51	inactive
82	SMOX	1	-0.41	inactive
83	SMOX	1	1.81	inactive
84	TMEM129	1	0.18	inactive
85	TMEM129	1	0.3	inactive
86	TMEM129	1	0.68	inactive
87	TMEM129	1	-1.12	inactive
88	SLC68A1	1	2.15	inactive
89	SLC68A1	1	1.24	inactive
90	SLC68A1	1	0.7	inactive
91	SLC68A1	1	2.09	inactive
92	TNNI1	1	-0.64	inactive
93	TNNI1	1	0.42	inactive
94	TNNI1	1	0.34	inactive
95	TNNI1	1	0.23	inactive
96	CA14	1	-0.2	inactive
97	CA14	1	0.25	inactive
98	CA14	1	0.29	inactive
99	CA14	1	1.17	inactive
100	RDH10	1	-2	active
101	RDH10	1	-1.66	active
102	RDH10	1	-0.63	inactive
103	RDH10	1	-0.62	inactive
104	GPR148	1	1.64	inactive
105	GPR148	1	0.02	inactive
106	GPR148	1	-0.55	inactive
107	GPR148	1	1.19	inactive
108	ISCA2	1	-0.75	inactive
109	ISCA2	1	0.21	inactive
110	ISCA2	1	-0.61	inactive
111	ISCA2	1	-0.94	inactive
112	CYP4A22	1	1.42	inactive
113	CYP4A22	1	0.95	inactive
114	CYP4A22	1	2.35	inactive
115	CYP4A22	1	0.55	inactive
116	MUC20	1	2.27	inactive
117	MUC20	1	0.06	inactive
118	MUC20	1	0.09	inactive
119	MUC20	1	0.18	inactive
120	IL19	1	-1.06	inactive
121	IL19	1	-0.75	inactive
122	IL19	1	-0.62	inactive
123	IL19	1	-0.96	inactive
124	KDM4C	1	1.41	inactive
125	KDM4C	1	1.27	inactive
126	KDM4C	1	1.71	inactive
127	KDM4C	1	0.8	inactive
128	LOC652436 (retired record)	1	-0.55	inactive
129	LOC652436 (retired record)	1	-0.62	inactive
130	LOC652436 (retired record)	1	0.04	inactive
131	LOC652436 (retired record)	1	-0.2	inactive
132	AOAH	1	-2.48	active
133	AOAH	1	-0.05	inactive
134	AOAH	1	-0.91	inactive
135	AOAH	1	-0.16	inactive
136	CDC42BPG	1	0.26	inactive
137	CDC42BPG	1	1.09	inactive
138	CDC42BPG	1	0.96	inactive
139	CDC42BPG	1	1.4	inactive
140	NDUFAF3	1	-0.23	inactive
141	NDUFAF3	1	0.29	inactive
142	NDUFAF3	1	-0.71	inactive
143	NDUFAF3	1	-0.02	inactive

15 successive reagents already listed:
no.	gene	reagent	TNF reporter robust z-score	call
10	ILK	1	1.58	inactive
11	ILK	1	0.51	inactive
12	ILK	1	0.89	inactive
13	LBR	1	-0.11	inactive
14	LBR	1	-0.02	inactive
15	LBR	1	-0.54	inactive
16	LBR	1	-0.56	inactive
17	CACNA2D2	1	-0.44	inactive
18	CACNA2D2	1	-0.66	inactive
19	CACNA2D2	1	-1	inactive
20	CACNA2D2	1	0.14	inactive
21	BNIP5	1	-0.22	inactive
22	BNIP5	1	1.89	inactive
23	BNIP5	1	0.34	inactive
24	BNIP5	1	0.4	inactive
